According to patent US20150266957A1:
These are yes or no findings as the source states them, for the method shown. Some binding calls cover weakened binding; strength is not graded here.

What was measured:
[1] = target: cynomolgus monkey PROKR2 (cynomolgus monkey (Macaca fascicularis)); test: flow cytometry, HEK293 cells expressing the target, 13 nM antibody
[2] = target: cynomolgus monkey PROKR2 (cynomolgus monkey (Macaca fascicularis)); test: flow cytometry, HEK293 cells expressing the target

binding [1]: binds | binding [2]: binds
B1: H2M6385N (antibody, V domains shown)
VH: EVQVVESGGGLVKPGGSLRLSCAASGFTFSNVWMTWVRQAPGKGLEWVGRIKSKIEGGTTDYAASVKGRFTISRDDSKNTQSLQMNSLKSEDTAVYYCSTGHLAYWGQGTLVIVSS
VL: DIVMTQTPLSSPVSLGQPASISCRSSQSLVHSDGSTYLSWLQQRPGQPPRLLIYKISNRFSGVPDRFSGSGAGTDFTLKISRVEAEDVGIYYCMQATQFPTFGQGTKVEIK
